The source of these data is PubChem BioAssay AID485318 (Broad Institute, 2010).

Protein sequences, listed by entry. Tags and fused reporters are not part of them. Lines headed by an entry give the natural chain unless they say otherwise; changes in a name come on top.
UniProt O15379: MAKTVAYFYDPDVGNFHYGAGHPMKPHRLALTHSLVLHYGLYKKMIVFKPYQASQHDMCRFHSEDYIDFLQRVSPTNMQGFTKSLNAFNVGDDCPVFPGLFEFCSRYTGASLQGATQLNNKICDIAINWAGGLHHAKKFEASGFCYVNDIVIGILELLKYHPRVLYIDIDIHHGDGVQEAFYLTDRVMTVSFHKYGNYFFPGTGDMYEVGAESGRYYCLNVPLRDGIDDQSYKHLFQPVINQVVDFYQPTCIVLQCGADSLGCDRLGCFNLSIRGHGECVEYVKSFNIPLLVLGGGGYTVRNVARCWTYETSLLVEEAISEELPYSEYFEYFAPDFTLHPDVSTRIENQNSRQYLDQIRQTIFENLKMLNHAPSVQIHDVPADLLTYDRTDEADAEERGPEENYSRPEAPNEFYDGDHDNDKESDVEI

In all, about 1,400 compounds went through this assay and fewer than 10 were called active.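 How the source made its calls: active means fluorescence-lowering compounds whose fitted half-maximal concentration is at or below ten times the highest valid dose tested; inconclusive means flat curve at 30 to 70% inhibition, or poor fit; inactive means the rest.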 Some of the results follow.

The target in the test is Histone deacetylase 3 (Homo sapiens) (UniProt O15379). Kind of test: inhibition of human HDAC3 enzymatic activity – biochemical, fluorescence, cherry-picked samples, counter-screen for JMJD2C/GASC1 demethylase inhibitor project, dose response (AID 485318).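 Further: enzyme preincubated with compound before substrate and trypsin were added; 0% = neutral control wells and -100% = SAHA positive control wells.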 The settings on record: recombinant HDAC3, fluorogenic peptide/trypsin coupled; at 12 µM (top of the series). Background: A counterscreen serves to expose hits that act by an unwanted route or on another target.
`CCn1nc(C(=O)NNC(=O)COc2ccc(OC)cc2)c2ccccc2c1=O`: the activity change, negative = inhibition is inactive: 0.103%. Turning to `COc1ccc(N2CCN(C(=O)CSc3nnc(-c4cccnc4)n3-c3ccccc3)CC2)cc1`, the activity change, negative = inhibition was inactive: -0.062%. The result for `O=C(NCc1nnc(SCC(=O)N2CCCC2)o1)c1ccccc1F` reads inactive: 0.414%; that for `Cc1cc(NC(=O)Nc2c[nH]c(=O)[nH]c2=O)ccc1Br`, inactive: -0.238%. Next, `CCn1c(O)c(N=NC2=NC(=O)CS2)c2ccccc21`: inactive: -0.261%; `CCN(CC)C(=O)[C@H]1CC(CC(=O)NCc2cccc(C(F)(F)F)c2)C(=O)N2CCc3c([nH]c4ccccc34)[C@]12C` (stereo not given in full): inactive: 0.0358%. Next, `COc1ccccc1CNC(=O)COc1ccc(S(=O)(=O)N2CCOCC2)cc1C`: inactive: -0.41%; `Nc1c(Cl)ncnc1NCc1cccnc1`: inactive: 0.296%. In the case of `Cc1ccc(/C(N)=N/OC(=O)CCC2CCCCC2)cc1`, the activity change, negative = inhibition is inactive: 0.336%.

For the molecule `N=C1C(c2nc3ccccc3s2)=C(O)CN1Cc1ccccc1`, the activity change, negative = inhibition was inactive: 0.082%.

Turning to `CC(C)NC(=O)N(C)C[C@H]1Oc2ccc(NC(=O)C3CC3)cc2C(=O)N([C@H](C)CO)C[C@@H]1C`, the activity change, negative = inhibition is inactive: 0.135%. The result for `COc1ccc(S(=O)(=O)Nc2ccc3c(c2)CC(=O)N([C@@H](C)CO)C[C@H](C)[C@@H](CN(C)S(=O)(=O)c2ccc(F)cc2)O3)cc1` reads inactive: -0.0258%; that for `CCNC(=O)c1ccc2c(c1)S(=O)(=O)c1ccccc1C2=O`, inactive: 0.35%; that for `O=C(CSc1nnnn1-c1ccc(Cl)cc1)N1CCc2ccccc2C1`, inactive: -0.296%. Next, `CCN1CCC(=NNC(=O)c2ccc(C)c([N+](=O)[O-])c2)CC1`: inactive: -0.151%. The result for `CCOc1cc(CN2CCN(CCc3ccccc3)C(CCO)C2)ccc1OC` (stereo not given) reads inactive: -0.41%; that for `Cc1ccc(C2CC(c3ccccc3)=NN2C(=S)Nc2ccccc2)o1` (stereo not given), inactive: 0.186%. In the case of `N#CC(=C1CCCC1)c1nc(-c2ccccc2)cs1`, the activity change, negative = inhibition is inactive: -0.44%. Next, `CCOC(=O)N1CCC(c2nc3ccccc3[nH]2)CC1`: inactive: 0.964%; `CC(C)CCn1c(NCCN(C)C)nc2c1c(=O)[nH]c(=O)n2C`: inactive: -0.59%. Next, `O=c1oc(C2(O)CCCCC2)cc2ccccc12`: inactive: -0.0707%; `CCOc1ccc(-c2c(C#N)c(N)nc3c2c(=O)n(C)c(=O)n3C)cc1OC`: inactive: 0.544%; `CCN1C(=O)C(C(=O)Nc2ccc(OC)cc2)C2CC1(C)Oc1ccccc12` (stereo not given): inactive: 0.383%. In the case of `Cc1cc(OC(=O)c2c(C)cc(OC(=O)c3c(C)cc(O)cc3O)cc2O)cc(O)c1C(=O)O`, the activity change, negative = inhibition was inactive: 0.12%. The result for `COc1ccc(-c2nnc(SC(C)C(=O)NCc3ccc4c(c3)OCO4)n2Cc2ccco2)cc1` (stereo not given) reads inactive: -0.548%.

In the case of `CCc1ccc(-c2nnn(Cc3nn[nH]n3)n2)cc1`, the activity change, negative = inhibition is inactive: 0.626%. As for `CC(C)CNC(=O)c1ccc(NC(=O)c2cccs2)cc1`, the activity change, negative = inhibition is inactive: -0.0738%.

`Cc1[nH]c2ccccc2c1-c1ccc(Cl)nn1`: the activity change, negative = inhibition was inactive: -1.36%. Regarding `Clc1ccccc1Cn1nnc2c(NCCN3CCOCC3)ncnc21`, the activity change, negative = inhibition is inactive: 0.515%. The result for `CS(=O)(=O)N(CC(=O)O)c1cc(Cl)cc(Cl)c1` reads inactive: -0.416%; that for `O=S(=O)(c1ccc2nc(Nc3ccccc3)ccc2c1)N1CCCCC1`, inactive: -0.0951%; that for `CCCCOc1ccc(C(=O)Nc2ccc(N3CCN(C(C)=O)CC3)cc2)cc1`, inactive: 0.78%.

Regarding `O=c1cc(N/N=C/c2ccccc2)[nH]c(=O)[nH]1`, the activity change, negative = inhibition is inactive: -0.139%. Consider `CC(=O)C[C@H](O)CC(=O)[C@H]1OC(=O)[C@H](C)CCCCc2ccccc21`, for which the activity change, negative = inhibition was inactive: 0.499%.

`O=C(NS(=O)(=O)c1ccc2c(c1)OCCO2)c1ccccc1`: the activity change, negative = inhibition is inactive: 0.348%. Regarding `CCS(=O)(=O)N1CCN(c2ccc([N+](=O)[O-])c(N3CCOCC3)c2)CC1`, the activity change, negative = inhibition is inactive: -0.0167%. As to `O=C(CSc1nc2ccccc2c(=O)n1Cc1ccccc1)NCc1ccco1`, the activity change, negative = inhibition was inactive: 0.0439%.

For `CCOc1cc(/C=N/NC(=O)C(=O)N/N=C/c2ccc(O)c(OCC)c2)ccc1O`, the activity change, negative = inhibition was inactive: -0.0888%. Next, `CC(OC(=O)c1cccnc1SCc1cc(=O)n2ccccc2n1)c1ccccn1` (stereo not given): inactive: -0.51%. The result for `COC(=O)c1ccc(CSc2nc3sc(C(=O)O)c(C)c3c(=O)[nH]2)cc1` reads inactive: 0.622%. Consider `CC[C@]12c3[nH]c4ccccc4c3CCN1C(=O)C(CC(=O)NCCCOC)C[C@@H]2C(=O)N1CCN(C(=O)C2CC2)CC1` (stereo not given in full), for which the activity change, negative = inhibition was inactive: 0.125%. Next, `COc1ccc(NC(=O)CNC(=O)c2nn(-c3ccc(OC)c(Cl)c3)c(=O)c3ccccc23)c(OC)c1`: inactive: -0.0159%; `Cc1nc2nc(C)c(CCC(=O)NCc3ccc4c(c3)OCO4)c(C)n2n1`: inactive: 0.43%. For `COC(=O)COc1ccc(Oc2cc(C)nc(SC)n2)nn1`, the activity change, negative = inhibition is inactive: 1.16%. The result for `CCn1c(SCC(=O)NCC(=O)Nc2ccc(F)cc2)nnc1-c1ccncc1` reads inactive: 0.118%; that for `C[C@H](CO)N1C[C@H](C)[C@@H](CN(C)C(=O)Nc2ccc(C(F)(F)F)cc2)Oc2c(cccc2N(C)C)C1=O`, inactive: 0.162%. Regarding `Cc1nnc(N=c2ssnc2Cl)o1`, the activity change, negative = inhibition is inactive: -0.304%. The result for `Cc1onc(-c2c(F)cccc2Cl)c1C(=O)NC1CC1` reads inactive: -0.543%; that for `Cc1csc(NC(=O)CSc2nnc(-c3ccncc3)n2C)n1`, inactive: 0.441%; that for `Cc1cc2oc(=O)cc(CSc3nnc(-c4cccs4)o3)c2cc1C(C)C`, inactive: 0.339%.

For the molecule `CN1CCC[C@H]1CCNC(=O)c1c(-c2ccsc2)sc2ccccc12`, the activity change, negative = inhibition is inactive: 0.161%. For `COc1ccc(C(=O)N2CCCC(c3nc(-c4ccc(OC)c(OC)c4)no3)C2)c(OC)c1` (stereo not given), the activity change, negative = inhibition was inactive: 0.546%. Next, `Cc1ccc(S(=O)(=O)NC(=O)NCc2ccc(Cl)cc2)cc1`: inactive: -0.66%; `Cc1cccc(C2=N/C(=C\c3cccnc3)C(=O)O2)c1`: inactive: 0.15%; `O=[N+]([O-])c1cc(-c2cnc3ccccc3n2)ccc1Oc1ccc(F)cc1`: inactive: 0.0434%. Next, `Cc1cccn2c(=O)c3cc(C(=O)NCCN4CCOCC4)c(=N)n(CCc4ccccc4)c3nc12`: inactive: 0.696%. With `O=C(O)Cc1ccc2oc(-c3cccnc3)nc2c1`, the activity change, negative = inhibition is inactive: -0.955%.

For the molecule `Cc1nc2cc(CO)ccc2n1C`, the activity change, negative = inhibition is inactive: -0.0334%.

As to `O=C1CCN(Cc2ccc(O)cc2)CCN1[C@H](CO)Cc1ccccc1`, the activity change, negative = inhibition was inactive: 0.811%.

Regarding `CN(C)S(=O)(=O)c1cccc(NC(=S)NCc2ccc3c(c2)OCO3)c1`, the activity change, negative = inhibition is inactive: -0.283%. With `COC(=O)c1cc(NC(=O)CSc2nncn2C)cc(C(=O)OC)c1`, the activity change, negative = inhibition was inactive: 0.228%.

Take `O=C(NCC1CCCO1)c1ccc2c(=O)n(Cc3cccc(Br)c3)c(=S)[nH]c2c1` (stereo not given): the activity change, negative = inhibition is inactive: 0.246%.

As for `O=C(Cn1cncn1)NCc1cc(F)ccc1F`, the activity change, negative = inhibition is inactive: 0.155%. On to `O=C(Nc1ccc(-c2nc3ncccc3o2)cc1)c1ccc(Br)o1`, for which the activity change, negative = inhibition is inactive: -0.298%. Next, `C[C@@H]1CN([C@H](C)CO)C(=O)c2cccc(NS(=O)(=O)c3ccccc3)c2O[C@H]1CN(C)C`: inactive: -1.05%; `O=C(COC(=O)c1ccc(O)cc1)Nc1ccc(Cl)cc1`: inactive: 0.633%; `CCCCNC(=O)CC1N=C2c3ccccc3N=C(SCC(=O)Nc3cccc(C)c3)N2C1=O` (stereo not given): inactive: -0.234%. The result for `O=C(NCCCN1CCOCC1)c1cccc(S(=O)(=O)N2CCc3ccccc3C2)c1` reads inactive: -0.539%. Next, `FC(F)(F)c1ccccc1NC(=S)NN=C1CCCCCC1`: inactive: -0.043%; `CC(C)(C)OC(=O)N[C@@H](Cc1ccccc1)C(=O)N[C@@H](CO)[C@H](O)[C@@H]1C[C@@H]1C(=O)NC1CCCCC1`: inactive: 0.712%; `COc1ccc(N2CCN(C(=O)Cn3nnc(-c4ccc(N(C)C)cc4)n3)CC2)cc1`: inactive: 0.674%. Turning to `C[C@@H]1CN([C@H](C)CO)C(=O)c2cc(NC(=O)Nc3ccc(C(F)(F)F)cc3)ccc2O[C@H]1CN(C)S(=O)(=O)c1ccccc1`, the activity change, negative = inhibition is inactive: 0.477%.

`O=C(O)c1cc(O)c2c(c1)[C@@H]([C@H]1c3cc(C(=O)O)cc(O)c3C(=O)c3c(O[C@@H]4O[C@H](CO)[C@@H](O)[C@H](O)[C@H]4O)cccc31)c1cccc(O[C@@H]3O[C@H](CO)[C@@H](O)[C@H](O)[C@H]3O)c1C2=O`: the activity change, negative = inhibition was inactive: 0.118%. The result for `CCCC(=O)Nc1nn(C)c2nc3c(C)cccc3cc12` reads inactive: 0.372%; that for `COc1ccccc1-n1cnnc1SCC(=O)Nc1ncc(Cl)cc1Cl`, inactive: 0.212%; that for `COC(=O)c1cc(S(=O)(=O)NCCCN2CCCC2=O)cn1C`, inactive: 0.57%. As to `Cc1cc(-n2c(SCC(=O)NCc3cccs3)nc3n[nH]c(C)c3c2=N)ccc1Cl`, the activity change, negative = inhibition was inactive: 0.308%. The result for `COc1ccc(S(=O)(=O)NCCCCC(=O)O)cc1C(=O)O` reads inactive: 1.18%; that for `COc1cc(C)c(/C=C(\C#N)C(=O)Nc2ccc(C)cc2)cc1C(C)C`, inactive: 0.657%. Next, `O=C(Cc1cccc2ccccc12)N1CCCc2ccccc21`: inactive: -0.303%; `CCOCCc1nnc(NC(=O)c2ccc(OC)c(OC)c2)s1`: inactive: -1.23%. Next, `CCCNC(=S)Nc1ccc(Nc2ccccc2)cc1`: inactive: 0.178%; `CC(NC(=O)NNC(N)=S)(C(F)(F)F)C(F)(F)F`: inactive: 0.344%; `C[C@H](CO)N1C[C@H](C)[C@@H](CN(C)Cc2ccc(Cl)c(Cl)c2)Oc2c(NS(=O)(=O)c3cccs3)cccc2C1=O`: inactive: 0.142%. Consider `COc1ccc(CCNC(=O)c2ccc(N3CCCCS3(=O)=O)cc2)cc1OC`, for which the activity change, negative = inhibition is inactive: 0.084%.
